Measurements reported in PubChem BioAssay AID504744 (Drosophila RNAi Screening Center, 2011)
Aim: 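Uncover factors, including feedback loops, that control dAkt activation in fly cells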 (primary screen). System: Drosophila Kc167 cells. Knock-down reagent: long dsRNA against Drosophila genes, 250 ng dsRNA per well of a 384-well plate. Timing: 3 days of knock-down, then overnight serum-free starvation before stimulation. Conditions: bovine insulin at 387 nM for 10 minutes after 12 h without serum. Measurement: 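In-cell antibody fluorescence for phospho-dAkt in each well over DNA-dye signal, with log2 residuals expressed as z-scores adjusted for cell count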. Call rule: 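Under insulin, a gene counts as a hit if the average z-score of two replicates lies above 2.5 or below -2.5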.
The screen tested about 23,000 reagents; shown is an unselected part of those that have a named target and a result. In the full data, 98 (0.43%) got an active call. 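Only hit calls are given; the phospho-dAkt signals, z-scores and hit direction were not deposited.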 Names joined by + are all predicted targets of the reagent.

no.	gene knocked down	amplicon	Outcome
1	CG42232	DRSC15018	inactive
2	CG42232	DRSC15019	inactive
3	Keap1	DRSC15528	inactive
4	alpha-Man-Ib	DRSC14418	inactive
5	Prp8	DRSC07293	inactive
6	SelR	DRSC16071	inactive
7	TotX	DRSC22206	inactive
8	Septin2	DRSC16855	inactive
9	cert	DRSC09674	inactive
10	CG14191	DRSC19546	inactive
11	CecA1	DRSC16603	inactive
12	Dlish	DRSC06016	inactive
13	CG14852	DRSC14976	inactive
14	Ras64B	DRSC08689	inactive
15	CG14759	DRSC06494	inactive
16	CG13836 (retired record)	DRSC14686	inactive
17	CG9016	DRSC03127	inactive
18	ImpE3	DRSC16716	inactive
19	CG33475	DRSC22943	inactive
20	sona	DRSC04089	active
21	sona	DRSC04574	inactive
22	sona	DRSC04575	inactive
23	robl	DRSC07674	inactive
24	CG34406 (retired record)	DRSC00523	inactive
25	CG34406 (retired record)	DRSC00606	inactive
26	Coq3	DRSC03168	inactive
27	CG31462 (retired record)	DRSC14359	inactive
28	CG6607	DRSC16073	inactive
29	Ntl	DRSC03003	inactive
30	fy	DRSC03533	inactive
31	Coq5	DRSC19849	inactive
32	Coq5	DRSC21371	inactive
33	ppk23	DRSC20110	inactive
34	RanBPM	DRSC06079	inactive
35	Obp57c + Obp57b	DRSC21914	inactive
36	hzg	DRSC10549	inactive
37	CG10508	DRSC11612	inactive
38	CG10508	DRSC11613	inactive
39	stnB + stnA	DRSC20969	inactive
40	stnB + stnA	DRSC21112	inactive
41	stnB + stnA	DRSC21113	inactive
42	CG6978	DRSC18409	inactive
43	mre11	DRSC03570	inactive
44	mre11	DRSC22628	inactive
45	ninaD	DRSC02886	inactive
46	salto	DRSC06291	inactive
47	Irk2	DRSC15569	inactive
48	milt	DRSC00965	inactive
49	milt	DRSC00966	inactive
50	milt	DRSC02281	inactive
51	Rbbp5 + CG6434 (retired record)	DRSC10635	inactive
52	hfw	DRSC18506	inactive
53	CG6040	DRSC15954	inactive
54	Zwilch	DRSC15376	inactive
55	CG3165	DRSC00573	inactive
56	CG15141	DRSC02441	inactive
57	CG15141	DRSC02442	inactive
58	nmdyn-D7	DRSC17016	inactive
59	Acp62F	DRSC08136	inactive
60	Nos	DRSC03381	inactive
61	CG3199	DRSC15467	inactive
62	CG13154	DRSC06279	inactive
63	CG5174	DRSC06920	inactive
64	CG8641	DRSC11028	inactive
65	Gmap	DRSC19988	inactive
66	Gmap	DRSC20057	inactive
67	lark	DRSC11362	inactive
68	ZAP3	DRSC17852	inactive
69	ZAP3	DRSC17853	inactive
70	ZAP3	DRSC18249	inactive
71	tou	DRSC06006	inactive
72	tou	DRSC22710	inactive
73	CG5653	DRSC10534	inactive
74	CG4911	DRSC10456	inactive
75	Dic1	DRSC14125	inactive
76	CR42745 (retired record)	DRSC13756	inactive
77	CG5214	DRSC15739	inactive
78	CG5214	DRSC22842	inactive
79	NaPi-T	DRSC07476	inactive
80	CG31436	DRSC14661	inactive
81	Mal-A3	DRSC07462	inactive
82	CG8939	DRSC20127	inactive
83	neo	DRSC16316	inactive
84	Uggt	DRSC11315	inactive
85	CCHa2	DRSC14835	inactive
86	CG43066	DRSC06927	inactive
87	CG15046	DRSC19622	inactive
88	RpS29 + snoRNA:Psi18S-1275	DRSC16433	inactive
89	CG12699	DRSC06162	inactive
90	Lcp4	DRSC07458	inactive
91	CG12105	DRSC08255	inactive
92	CG14075	DRSC10080	inactive
93	Rab3-GEF	DRSC19954	inactive
94	Rab3-GEF	DRSC19955	inactive
95	Rab3-GEF	DRSC19956	inactive
96	CG4962	DRSC10464	inactive
97	lost	DRSC12002	inactive
98	lost	DRSC12234	inactive
99	lost	DRSC21987	inactive
100	CG32022	DRSC09678	inactive
101	CG11815	DRSC08209	inactive
102	CG32176	DRSC10057	inactive
103	CG32176	DRSC10058	inactive
104	CG6565	DRSC02970	inactive
105	GluClalpha	DRSC16680	inactive
106	CG43658	DRSC20111	inactive
107	GluRIIE	DRSC13431	inactive
108	DNaseII	DRSC16310	inactive
109	CG5561	DRSC00688	inactive
110	eIF5B	DRSC08429	inactive
111	eIF5B	DRSC08710	inactive
112	CG15056	DRSC19630	inactive
113	Ranbp16	DRSC20160	inactive
114	CG18540	DRSC06767	inactive
115	CG13070	DRSC09953	inactive
116	Df31	DRSC03738	inactive
117	Df31	DRSC22163	inactive
118	CG17028	DRSC10239	inactive
119	osi	DRSC02931	inactive
120	PrBP	DRSC03189	inactive
121	ergic53	DRSC11389	inactive
122	CG33465	DRSC05587	inactive
123	obst-J	DRSC10821	inactive
124	Nup188	DRSC21830	inactive
125	Npc2d	DRSC14551	inactive
126	CG2186	DRSC19838	inactive
127	CG5347	DRSC19942	inactive
128	PMP34	DRSC21939	inactive
129	lcs	DRSC20580	inactive
130	Aptx	DRSC15768	inactive
131	side-IV + CG17025 (retired record)	DRSC15168	inactive
132	CG8765	DRSC11041	inactive
133	Alp13	DRSC15781	inactive
134	Lim1	DRSC17752	inactive
135	Lim1	DRSC18677	inactive
136	CG7650	DRSC10898	inactive
137	CG5139	DRSC00681	inactive
138	CG13840	DRSC14690	inactive
139	CG1233	DRSC08269	inactive
140	CG32694	DRSC17844	inactive
141	CG32694	DRSC17855	inactive
142	CG32694	DRSC22670	inactive
143	Atf3	DRSC17225	inactive
144	CG13609	DRSC14612	inactive
145	CG13609	DRSC22843	inactive
146	CG14401	DRSC02385	inactive
147	CG14401	DRSC21710	inactive
148	CG32278 + CG14963	DRSC22203	inactive
149	nkt	DRSC10144	inactive
150	CG14340	DRSC00370	inactive
151	PhKgamma	DRSC20268	inactive
152	TwdlM	DRSC15810	inactive
153	CG31548	DRSC22640	inactive
154	CG30015	DRSC05241	inactive
155	CG30015	DRSC07027	inactive
156	CG30015	DRSC07028	inactive
157	UQCR-C1	DRSC15508	inactive
158	Grl43a	DRSC06383	inactive
159	CG5890	DRSC15909	inactive
160	CG14229	DRSC19585	inactive
161	Pus10	DRSC00629	inactive
162	CG12448	DRSC01967	inactive
163	Rbfox1	DRSC09034	inactive
164	Rbfox1	DRSC10157	inactive
165	Rbfox1	DRSC10320	inactive
166	Rbfox1	DRSC21378	inactive
167	pit	DRSC17025	inactive
168	pit	DRSC22798	inactive
169	Usp15-31	DRSC04426	inactive
170	Usp15-31	DRSC04532	inactive
171	CG14111	DRSC10114	inactive
172	TfIIEbeta	DRSC08701	inactive
173	HDAC4	DRSC19780	inactive
174	Liprin-alpha	DRSC02132	inactive
175	CG7542	DRSC10868	inactive
176	CG13048	DRSC09929	inactive
177	CG34022 (retired record)	DRSC07949	inactive
178	wtrw	DRSC14241	inactive
179	wtrw	DRSC15278	inactive
180	CG7407	DRSC11824	inactive
181	CG42266	DRSC21577	inactive
182	CG42266	DRSC21957	inactive
183	Eglp4	DRSC04438	inactive
184	LRR	DRSC06444	inactive
185	CG34106	DRSC01578	inactive
186	Sgs5bis	DRSC16263	inactive
187	CG30323	DRSC07656	inactive
188	ed	DRSC00350	inactive
189	ed	DRSC00438	inactive
190	ed	DRSC00439	inactive
191	ed	DRSC00478	inactive
192	Vps60	DRSC10610	inactive
193	mEFTu2	DRSC06163	inactive
194	CG13875	DRSC08345	inactive
195	RNASEK	DRSC21641	inactive
196	CG9119	DRSC08620	inactive
197	opa	DRSC12384	inactive
198	opa	DRSC22563	inactive
199	CG11454	DRSC00310	inactive
200	Lpin	DRSC07241	inactive

8 neighbouring reagents from above:
no.	gene knocked down	amplicon	Outcome
176	CG13048	DRSC09929	inactive
177	CG34022 (retired record)	DRSC07949	inactive
178	wtrw	DRSC14241	inactive
179	wtrw	DRSC15278	inactive
180	CG7407	DRSC11824	inactive
181	CG42266	DRSC21577	inactive
182	CG42266	DRSC21957	inactive
183	Eglp4	DRSC04438	inactive
